Data from article doi:10.1101/2024.07.01.601608.
These are yes or no findings as the source states them, for the method shown. Some binding calls cover weakened binding; strength is not graded here. Where a sequence is shown, tags or fusion partners need not be part of it. Each block holds one binder with its values, some of them ahead of it.

Protein sequences, listed by entry. Tags and fused reporters are not part of them.
UniProt Q93074, whole entry: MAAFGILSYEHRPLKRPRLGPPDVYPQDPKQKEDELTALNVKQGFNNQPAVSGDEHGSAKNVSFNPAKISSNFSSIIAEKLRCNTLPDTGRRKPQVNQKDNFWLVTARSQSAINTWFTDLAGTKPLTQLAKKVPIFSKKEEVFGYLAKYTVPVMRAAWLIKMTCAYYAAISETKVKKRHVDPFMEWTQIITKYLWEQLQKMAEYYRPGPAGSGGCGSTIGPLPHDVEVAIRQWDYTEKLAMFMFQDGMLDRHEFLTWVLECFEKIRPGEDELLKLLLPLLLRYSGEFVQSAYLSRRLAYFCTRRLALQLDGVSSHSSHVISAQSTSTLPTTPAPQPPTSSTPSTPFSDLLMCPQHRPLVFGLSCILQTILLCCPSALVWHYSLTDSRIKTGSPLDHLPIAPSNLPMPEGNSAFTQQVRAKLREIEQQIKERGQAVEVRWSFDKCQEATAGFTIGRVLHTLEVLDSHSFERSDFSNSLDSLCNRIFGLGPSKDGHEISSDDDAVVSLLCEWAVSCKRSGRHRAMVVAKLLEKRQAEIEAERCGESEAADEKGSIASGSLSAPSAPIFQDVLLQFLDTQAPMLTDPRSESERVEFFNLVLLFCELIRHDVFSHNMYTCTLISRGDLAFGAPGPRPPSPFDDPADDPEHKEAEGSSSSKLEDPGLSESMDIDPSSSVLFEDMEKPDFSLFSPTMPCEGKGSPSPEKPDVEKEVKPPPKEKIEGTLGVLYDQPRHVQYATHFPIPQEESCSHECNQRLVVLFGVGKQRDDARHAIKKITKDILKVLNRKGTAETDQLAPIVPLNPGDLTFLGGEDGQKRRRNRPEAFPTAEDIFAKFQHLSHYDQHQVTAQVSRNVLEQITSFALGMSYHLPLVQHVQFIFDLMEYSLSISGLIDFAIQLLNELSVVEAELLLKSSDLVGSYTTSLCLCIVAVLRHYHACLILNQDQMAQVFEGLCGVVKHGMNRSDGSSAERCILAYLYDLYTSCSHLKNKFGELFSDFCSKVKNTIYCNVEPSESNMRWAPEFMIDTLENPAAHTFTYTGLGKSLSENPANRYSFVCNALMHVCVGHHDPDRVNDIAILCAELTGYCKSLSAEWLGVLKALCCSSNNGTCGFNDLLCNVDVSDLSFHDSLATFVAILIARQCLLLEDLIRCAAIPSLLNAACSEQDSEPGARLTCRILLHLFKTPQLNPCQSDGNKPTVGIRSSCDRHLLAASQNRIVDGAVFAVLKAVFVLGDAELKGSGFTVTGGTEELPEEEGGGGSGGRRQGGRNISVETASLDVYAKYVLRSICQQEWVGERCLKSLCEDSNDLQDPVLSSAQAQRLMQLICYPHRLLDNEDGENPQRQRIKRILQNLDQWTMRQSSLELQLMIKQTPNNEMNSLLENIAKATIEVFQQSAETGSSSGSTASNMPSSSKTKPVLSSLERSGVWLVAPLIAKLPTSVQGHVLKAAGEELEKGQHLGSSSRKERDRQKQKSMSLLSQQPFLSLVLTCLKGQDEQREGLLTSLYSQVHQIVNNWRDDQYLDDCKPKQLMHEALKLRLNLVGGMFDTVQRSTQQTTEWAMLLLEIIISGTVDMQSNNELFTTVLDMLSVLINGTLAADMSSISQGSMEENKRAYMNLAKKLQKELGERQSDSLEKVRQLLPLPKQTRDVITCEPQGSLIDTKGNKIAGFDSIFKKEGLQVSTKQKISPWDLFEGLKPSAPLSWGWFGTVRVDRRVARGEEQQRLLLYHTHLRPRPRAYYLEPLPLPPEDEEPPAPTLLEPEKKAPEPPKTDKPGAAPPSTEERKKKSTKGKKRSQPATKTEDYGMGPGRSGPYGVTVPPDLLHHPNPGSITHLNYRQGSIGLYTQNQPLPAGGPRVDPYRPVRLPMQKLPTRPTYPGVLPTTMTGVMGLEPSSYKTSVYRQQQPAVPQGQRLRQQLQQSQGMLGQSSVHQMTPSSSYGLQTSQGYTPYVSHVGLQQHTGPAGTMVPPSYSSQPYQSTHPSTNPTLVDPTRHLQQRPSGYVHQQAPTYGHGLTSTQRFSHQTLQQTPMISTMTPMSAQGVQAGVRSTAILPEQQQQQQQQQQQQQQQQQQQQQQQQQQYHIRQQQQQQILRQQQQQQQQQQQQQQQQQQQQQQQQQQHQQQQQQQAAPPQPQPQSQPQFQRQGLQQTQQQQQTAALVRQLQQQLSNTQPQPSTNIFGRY

Columns and labels:
[1] = molecular target: MED12 (endogenous) (human (endogenous in 293-F)), Q93074; test: cross-linking; settings: remark: other sources report otherwise
[2] = molecular target: MED13 (endogenous) (human (endogenous in 293-F)), Q9UHV7; test: cross-linking; settings: remark: other sources report otherwise
[3] = molecular target: T1, GST-MED13 IDRc (residues 500-1069) (human) (UniProt Q9UHV7); test: pull-down
T1 sequence: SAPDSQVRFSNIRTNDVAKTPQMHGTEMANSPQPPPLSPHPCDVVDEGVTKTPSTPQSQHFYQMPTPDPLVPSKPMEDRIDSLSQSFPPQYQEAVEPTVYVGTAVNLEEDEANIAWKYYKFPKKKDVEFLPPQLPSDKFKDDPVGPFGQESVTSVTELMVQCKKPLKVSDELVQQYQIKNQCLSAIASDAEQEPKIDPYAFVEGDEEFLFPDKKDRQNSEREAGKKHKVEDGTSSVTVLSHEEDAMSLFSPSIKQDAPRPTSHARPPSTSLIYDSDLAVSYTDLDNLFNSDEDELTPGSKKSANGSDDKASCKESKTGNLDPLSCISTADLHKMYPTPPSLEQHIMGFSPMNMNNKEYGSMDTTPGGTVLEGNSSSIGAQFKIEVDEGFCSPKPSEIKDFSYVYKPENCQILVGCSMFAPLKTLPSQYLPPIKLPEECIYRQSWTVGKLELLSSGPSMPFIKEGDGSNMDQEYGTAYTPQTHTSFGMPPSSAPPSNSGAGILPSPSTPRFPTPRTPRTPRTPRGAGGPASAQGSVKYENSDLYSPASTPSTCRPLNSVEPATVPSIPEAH

- binding [1]: binds
- binding [2]: binds
B1: Flag-tagged CDK8 expressed in 293-F cells, P49336 1-464 (enzyme)
chain: MDYDFKVKLSSERERVEDLFEYEGCKVGRGTYGHVYKAKRKDGKDDKDYALKQIEGTGISMSACREIALLRELKHPNVISLQKVFLSHADRKVWLLFDYAEHDLWHIIKFHRASKANKKPVQLPRGMVKSLLYQILDGIHYLHANWVLHRDLKPANILVMGEGPERGRVKIADMGFARLFNSPLKPLADLDPVVVTFWYRAPELLLGARHYTKAIDIWAIGCIFAELLTSEPIFHCRQEDIKTSNPYHHDQLDRIFNVMGFPADKDWEDIKKMPEHSTLMKDFRRNTYTNCSLIKYMEKHKVKPDSKAFHLLQKLLTMDPIKRITSEQAMQDPYFLEDPLPTSDVFAGCQIPYPKREFLTEEEPDDKGDKKNQQQQQGNNHTNGTGHPGNQDSSHTQGPPLKKVRVVPPTTTSGGLIMTSDYQRSNPHAAYPNPGPSTSQPQSSMGYSATSQQPPQYSHQTHRY

- binding [3]: no binding
B2: MED26 (endogenous) (protein, UniProt O95402 1-600)
chain: MTAAPASPQQIRDRLLQAIDPQSNIRNMVAVLEVISSLEKYPITKEALEETRLGKLINDVRKKTKNEELAKRAKKLLRSWQKLIEPAHQHEAALRGLAGATGSANGGAHNCRPEVGAAGPPRSIHDLKSRNDLQRLPGQRLDRLGSRKRRGDQRDLGHPGPPPKVSKASHDPLVPNSSPLPTNGISGSPESFASSLDGSGHAGPEGSRLERDENDKHSGKIPVNAVRPHTSSPGLGKPPGPCLQPKASVLQQLDRVDETPGPPHPKGPPRCSFSPRNSRHEGSFARQQSLYAPKGSVPSPSPRPQALDATQVPSPLPLAQPSTPPVRRLELLPSAESPVCWLEQPESHQRLAGPGCKAGLSPAEPLLSRAGFSPDSSKADSDAASSGGSDSKKKKRYRPRDYTVNLDGQVAEAGVKPVRLKERKLTFDPMTRQIKPLTQKEPVRADSPVHMEQQSRTELDKQEAKASLQSPFEQTNWKELSRNEIIQSYLSRQSSLLSSSGAQTPGAHHFMSEYLKQEESTRQGARQLHVLVPQSPPTDLPGLTREVTQDDLDRIQASQWPGVNGCQDTQGNWYDWTQCISLDPHGDDGRLNILPYVCLD

- binding [2]: binds
B3: CCNC (endogenous), P24863 1-283 (protein)
chain: MAGNFWQSSHYLQWILDKQDLLKERQKDLKFLSEEEYWKLQIFFTNVIQALGEHLKLRQQVIATATVYFKRFYARYSLKSIDPVLMAPTCVFLASKVEEFGVVSNTRLIAAATSVLKTRFSYAFPKEFPYRMNHILECEFYLLELMDCCLIVYHPYRPLLQYVQDMGQEDMLLPLAWRIVNDTYRTDLCLLYPPFMIALACLHVACVVQQKDARQWFAELSVDMEKILEIIRVILKLYEQWKNFDERKEMATILSKMPKPKPPPNSEGEQGPNGSQNSSYSQS
